This test concerns the target Histone deacetylase 2 (human (endogenous in A375)) (UniProt Q92769). The test can be described thus: co-IP; lysates of A375 cells (with or without IFNα 1000 U/ml for 6 h; control or NOS1-overexpressing cells) precipitated with HDAC2 or IgG antibodies, Co-Immunoprecipitation Kit (Thermo Fisher 26149), western blot for STAT1 and STAT2. For orientation: A western blot detects proteins with antibodies after separation by electrophoresis.

Amino acid sequences for entries named in this document (tags omitted).
UniProt Q92769: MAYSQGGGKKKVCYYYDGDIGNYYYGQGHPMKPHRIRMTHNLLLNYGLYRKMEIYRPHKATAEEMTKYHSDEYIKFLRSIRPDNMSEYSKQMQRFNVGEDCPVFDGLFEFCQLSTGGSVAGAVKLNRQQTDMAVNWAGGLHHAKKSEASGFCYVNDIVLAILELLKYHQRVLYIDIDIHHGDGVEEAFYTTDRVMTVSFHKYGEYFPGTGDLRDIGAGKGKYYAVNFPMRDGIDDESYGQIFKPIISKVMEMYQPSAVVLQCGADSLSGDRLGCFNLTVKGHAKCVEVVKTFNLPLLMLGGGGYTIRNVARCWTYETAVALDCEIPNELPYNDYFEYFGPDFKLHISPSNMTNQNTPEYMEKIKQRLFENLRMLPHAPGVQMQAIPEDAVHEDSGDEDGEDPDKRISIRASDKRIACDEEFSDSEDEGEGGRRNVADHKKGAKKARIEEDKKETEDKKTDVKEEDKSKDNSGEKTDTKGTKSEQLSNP
UniProt P52630: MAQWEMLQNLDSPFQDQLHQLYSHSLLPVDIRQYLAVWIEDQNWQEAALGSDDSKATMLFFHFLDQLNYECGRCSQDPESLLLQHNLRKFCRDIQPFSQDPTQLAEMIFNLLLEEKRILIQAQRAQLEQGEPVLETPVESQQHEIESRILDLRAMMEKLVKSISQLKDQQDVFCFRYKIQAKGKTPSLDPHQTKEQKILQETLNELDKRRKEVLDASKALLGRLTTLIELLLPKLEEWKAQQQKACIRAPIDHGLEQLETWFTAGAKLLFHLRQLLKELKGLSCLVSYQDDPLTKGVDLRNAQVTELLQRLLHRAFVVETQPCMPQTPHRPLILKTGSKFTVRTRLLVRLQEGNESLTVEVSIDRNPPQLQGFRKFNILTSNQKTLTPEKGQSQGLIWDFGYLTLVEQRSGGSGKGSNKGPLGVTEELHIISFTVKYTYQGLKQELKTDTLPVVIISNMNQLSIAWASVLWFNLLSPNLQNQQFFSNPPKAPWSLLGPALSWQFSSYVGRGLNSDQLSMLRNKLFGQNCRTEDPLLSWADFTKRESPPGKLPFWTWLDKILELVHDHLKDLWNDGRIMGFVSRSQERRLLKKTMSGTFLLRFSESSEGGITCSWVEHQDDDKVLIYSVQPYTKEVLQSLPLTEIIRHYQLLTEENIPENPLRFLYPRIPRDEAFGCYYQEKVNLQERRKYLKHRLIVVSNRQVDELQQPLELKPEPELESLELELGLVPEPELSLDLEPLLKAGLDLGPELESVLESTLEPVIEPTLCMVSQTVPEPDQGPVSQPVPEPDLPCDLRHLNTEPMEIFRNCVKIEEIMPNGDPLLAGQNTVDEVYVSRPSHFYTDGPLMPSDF
UniProt P42224: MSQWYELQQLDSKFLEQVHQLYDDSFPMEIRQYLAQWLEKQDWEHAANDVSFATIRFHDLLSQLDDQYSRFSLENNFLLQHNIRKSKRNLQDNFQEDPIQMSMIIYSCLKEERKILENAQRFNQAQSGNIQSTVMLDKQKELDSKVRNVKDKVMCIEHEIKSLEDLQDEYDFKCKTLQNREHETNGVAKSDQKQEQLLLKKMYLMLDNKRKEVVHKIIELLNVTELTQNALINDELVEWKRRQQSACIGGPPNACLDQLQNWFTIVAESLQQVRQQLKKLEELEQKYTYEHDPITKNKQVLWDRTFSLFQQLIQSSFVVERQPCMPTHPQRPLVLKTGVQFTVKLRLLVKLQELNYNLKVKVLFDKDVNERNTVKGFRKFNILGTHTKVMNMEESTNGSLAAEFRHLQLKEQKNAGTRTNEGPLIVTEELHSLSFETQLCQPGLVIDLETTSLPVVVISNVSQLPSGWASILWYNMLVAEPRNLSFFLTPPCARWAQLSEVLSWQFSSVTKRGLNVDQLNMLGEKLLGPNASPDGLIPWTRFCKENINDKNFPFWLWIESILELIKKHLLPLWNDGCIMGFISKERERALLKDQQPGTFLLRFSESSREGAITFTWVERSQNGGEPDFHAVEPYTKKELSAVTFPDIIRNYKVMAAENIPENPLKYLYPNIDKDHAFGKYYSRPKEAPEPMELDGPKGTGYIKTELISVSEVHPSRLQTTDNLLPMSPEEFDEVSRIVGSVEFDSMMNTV

Results on 2 substances are retold here after PMC6896289.

These are yes or no findings as the source states them, for the method shown. In cells and extracts the contact can be indirect. Some results given as binding are weak or reduced against the parent protein; the word gives no strength.

With “Signal transducer and activator of transcription 2 (from UniProt P52630 1-851)”, the binding result was “binds”.
In the case of “Signal transducer and activator of transcription 1 (from UniProt P42224 1-750)” it was “binds”.
